Laboratory results taken from publication PMC7862700.
The list shows a part of the results. Construct or isoform of the protein are uncertain.

What follows are sequences tested against T1, ELF2 (UniProt Q15723) (assay: DAPPL (digital affinity profiling via proximity ligation, sequencing)). Conditions: 10 mM Tris-HCl pH 7.5, 50 mM NaCl, 1 mM DTT, 4% glycerol, room temperature, 30 min; GST-TFs on glutathione beads, 16-mer random dsDNA library, 0.1% …; high values mean tight binding; double strand, one strand shown; scale: fold enrichment (6-mer frequency, TF over GST control).
T1 sequence: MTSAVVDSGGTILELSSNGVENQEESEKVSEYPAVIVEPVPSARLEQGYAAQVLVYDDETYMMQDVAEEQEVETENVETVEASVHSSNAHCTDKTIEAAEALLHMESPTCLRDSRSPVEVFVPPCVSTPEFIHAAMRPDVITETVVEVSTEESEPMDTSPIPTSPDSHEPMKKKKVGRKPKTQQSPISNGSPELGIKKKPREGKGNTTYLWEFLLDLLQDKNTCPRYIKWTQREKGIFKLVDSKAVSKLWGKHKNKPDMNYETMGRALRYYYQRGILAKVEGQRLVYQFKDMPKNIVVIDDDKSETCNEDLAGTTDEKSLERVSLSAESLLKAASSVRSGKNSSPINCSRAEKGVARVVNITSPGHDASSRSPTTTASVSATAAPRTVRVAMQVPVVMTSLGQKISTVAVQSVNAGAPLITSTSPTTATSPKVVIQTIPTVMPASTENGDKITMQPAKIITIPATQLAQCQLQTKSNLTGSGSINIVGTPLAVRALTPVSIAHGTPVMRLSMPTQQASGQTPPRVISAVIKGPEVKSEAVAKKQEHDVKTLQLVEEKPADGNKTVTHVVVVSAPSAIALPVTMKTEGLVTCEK

Sequence | binding signal
ACATTT | 1.47
AGCTAT | 1.12
TGACCA | 1.19
AGGGCT | 1
GTATCT | 1.12
ATCAAC | 1.06
TTTGAT | 1.19
TCTGTG | 1.07
TAATCG | 0.99
TAAGAC | 0.883
CTCGTC | 1.24
CACCTT | 1.24
CATAGA | 0.882
TTTGAC | 1.35
CATGCG | 1
GCGAAC | 0.903
AATCAC | 1.08
TCCCGT | 1.34
AATGTA | 1.18
CTTGGC | 1.05

Sequence | binding signal
CGAGTA | 0.771
ATACGA | 1.06
CCTCGA | 1.23
CTTTGT | 1.23
TAATCA | 1.06
TCCCAT | 1.36
TAGCTC | 1.15
CTACCT | 1.4
GCTTAA | 0.976
GTCTGG | 0.814
AATAGG | 1.23
CAGAAC | 0.887
TTTCCG | 5.33
TTGACT | 1.14
TAACGG | 1.04
ATGAAC | 1.24
AATACT | 1.23
TGCCTC | 1.31
ATTAAA | 1.12
TAAGCG | 0.997

Looked up one by one from the entries so far, 2 records:
Sequence | binding signal
CGAGTA | 0.771
TAAGCG | 0.997
